# Laboratory results: the supplement of paper PMC10338343
# ± gives the standard deviation. The entries are a selection whose mix differs from that of the whole data set. Many of these values have a large error.
# Tested on: MIWI (PIWIL1) piRISC loaded with piRNA #2 (30 nt)
# Assay: pre-steady-state target cleavage rate (min^-1); MIWI and MILI are mouse PIWI proteins and EfPiwi is from a freshwater sponge; tags in brackets are library labels; higher = faster piRNA-guided slicing of the target
# Conditions: guide: piRNA #2 5'p-UUAGGUAACCCAGUAGAUCCAGAGGAAUUC; auxiliary factor: 500 nM mouse GTSF1
# How it was run: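 The pre-steady-state cleavage rate was obtained by Cleave-'n-Seq with a burst-and-steady-state fit. A transcribed, DNA-blocked target RNA library (0.1 nM) was mixed with 1 nM active affinity-purified piRISC carrying one synthetic guide, with or without 500 nM GTSF1 partner protein, in HEPES–potassium acetate buffer at 33 °C for 0–8 or 0–960 min. Uncleaved targets were sequenced and normalised to depth and to weakly complementary targets, with three trials pooled and k3 capped at 0.0001 min^-1.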
row,Sequence,pre-steady-state target cleavage rate
1,CUUAAGGAGACCAACUACUGGGAUACCUAA,0.00047 ± 0.011
2,CUUAAGGAGACCUACUACUGGCAAACCUAA,0.000186 ± 0.016
3,CUUAAGGAGAGGAUCAACUGGGUUACCUUA,0.000513 ± 0.011
4,CUUAAGGAGACCAUCUACUGGGUUAGCUUA,0.000645 ± 0.011
5,CUUAAGGUCUGGAUCUACUGGCGUUACCUAA,0.00112 ± 0.011
6,CUUAAGGAGACCUAGAUGACGGUUACCUAU [g2:g10:cont:t1U],0.00075 ± 0.01
7,CUUAAGGAGACCUAGAAGACGGUUACCUAA,0.000467 ± 0.0092
8,CUUAUCCUCUGGAUCUACUCGGGUUACCUAA,0.00145 ± 0.0073
9,CUUAAGGAGACGAUCUACAGGGUAACCUAA,0.00108 ± 0.0073
10,CUUAAGGAGACCAUCUAGUGGGUUACCAAA,0.00173 ± 0.0056
11,CUUAUCCUCUGGAUCUAGACGGUUACCUAA,0.000289 ± 0.021
12,CUUAACCUCUGGAUCUACUGGUUACCUAA,0.0564 ± 0.012
13,CUUAAGGAGACCUACUACUGGGUUACCUUAA,0.000668 ± 0.0093
14,CUUAAGGAGACCUAGAUGACGUUACCUAA,0.00133 ± 0.004
15,CUUAAGGUCUGGUUCUAGUGGGUUACCUAA,0.0776 ± 0.014
16,CUUAAGGAGACCUACUACUGGGUUGCCUAA,0.00172 ± 0.0067
17,CUUAAGGAGACCAUGUACUGGGUAACCUAA,0.000393 ± 0.021
18,CUUAAGGAGACGAUCUACUGCGUUACCUUA,0.000621 ± 0.011
19,CUUAAGCUCUGGAUCUACUGGCGUUACCUAA,0.00136 ± 0.01
20,CUUAAGGAGACCUUCUACUGGGAUACCUAA,0.00102 ± 0.0066
21,CUUAAGGAGACGAUCUACUGGGUUACCAUA,0.000909 ± 0.0094
22,CUUAAGGAGUGGAUCUUGAGGGUUACCUAA,0.000894 ± 0.0095
23,CUUAAGGACUGGAUCUUCAGGGUUACCUAA,0.00587 ± 0.006
24,CUUAAGGUCUGGAUCUACUCGGAUACCUAA,0.00325 ± 0.011

# Fetched one by one from the entries so far, three records:
row,Sequence,pre-steady-state target cleavage rate
7,CUUAAGGAGACCUAGAAGACGGUUACCUAA,0.000467 ± 0.0092
9,CUUAAGGAGACGAUCUACAGGGUAACCUAA,0.00108 ± 0.0073
16,CUUAAGGAGACCUACUACUGGGUUGCCUAA,0.00172 ± 0.0067

# Further results follow.

row,Sequence,pre-steady-state target cleavage rate
1,CUUAAGGAGACCUAGAUCUGGGUUACCUAA,0.00103 ± 0.0056
2,CUUAAGGAGACGAUCUACUGCCUUACCUAA,0.000794 ± 0.0056
3,CUUAAGGAGAGGAUCUACUGGCAUACCUAA,0.000172 ± 0.03
4,CUUAAGGAGACCUUCUAGCUGGGUUACCUAA,0.00168 ± 0.0053
5,CUUAAGGAGACGAUCUACAGGGUUACCUAA,0.00225 ± 0.0044
6,CUUAAGGUCUGGAUCUACUGGGUUCCUAA,0.00124 ± 0.0069
7,CUUAUCCUCUGGAUCUACUGGGUUACCAUA,0.497 ± 0.069
8,CUUAAGGAGACCUAGUACUGGGUUCCUAA,0.000141 ± 0.042
9,CUUAUCCUCUGGAUCUACUGGGAUUCCUAA,0.103 ± 0.04
10,CUUAAGGACUCGAUCUUCUGGGUUACCUAA,0.000382 ± 0.037
11,CUUAAGGUCUGGAUCUUACUGGGUUACCUAA,0.00149 ± 0.0043
12,CUUAAGGAGACCUACUACGGGGUUACCUAA,0.000812 ± 0.014
13,GAAUUCCUCUGGAUCUACUGGGUUACCAUAA,0.383 ± 0.049
14,CUUAAGGAGACCUUCUACUGGGUUACCUAU [g2:g17:cont:t1U],0.00321 ± 0.0042
15,CUAUUCCUCUGGAUCUCUGGGUUACCUAA,0.00302 ± 0.0051
16,CUUAAGGAGACGAUCUUCUGGGAUACCUAA,0.000809 ± 0.0084
17,CUUAAGGAGACGAUCUACUGGGAAACCUAA,0.000136 ± 0.025
18,CUUAAGGAGACCAUCUACUCGGUUACGUAA,0.00126 ± 0.0056
19,GAAUUCCACUGGAUCUACUGCGUUACCUAA,0.744 ± 0.063
20,CUUAAGGAGAGGAUCUACUGGGUUGCCUAA,0.00441 ± 0.005
21,CAAUUCCUCUGGAUCUAGACGGUUACCUAA,0.000436 ± 0.014
22,CUUAAGGAGUGGAUCUAGUGGGUUUCCUAA,0.000754 ± 0.006
23,CUUAAGGAGACGAUCUACAGGGUUACCAAA,0.00169 ± 0.0061
24,CUUAAGGUCUGGAUCUACUGGCUUAGCUAA,0.000634 ± 0.019

row,Sequence,pre-steady-state target cleavage rate
1,CUUAAGGAGACCUACUCUGGGUUACCUAA,0.000857 ± 0.0079
2,CUUAAGGAGACCUAGAUGUGGGUUACGUAA,0.000245 ± 0.018
3,CUUAUGCUCUGGAUCUACUGGGUUACGUAA,0.534 ± 0.042
4,CUUAAGGACUGUGAUCUACUGGGUUACCUAA,0.00475 ± 0.014
5,CUUAAGGAGACGAUCUACUGGGUUACCUGA,0.00244 ± 0.0037
6,CUUAAGGACUGGAACUACUGCGUUACCUAA,0.0189 ± 0.021
7,CUUAAGGACUGGAUCUACUGGGCUUACCUAA,0.00746 ± 0.012
8,CUUAAGGAGUGGUCUACUGGGUUACCUAA,0.00109 ± 0.009
9,CUUAUCCUCUGGAUCUACUGCGGUUACCUAA,0.00192 ± 0.0042
10,CUUAAGGAGACCAUCUUCUGGGUUACCUAA,0.00215 ± 0.004
11,CUUAAGGAGACCUAGUACUGGGUUACCAUA [g4:g15:cont:t1A],0.000686 ± 0.0091
12,CUUAAGGAGACCAUCUUCUGGGUUAGCUAA,0.0013 ± 0.0068
13,CUUAAGGAGACCUAGAUCUGGUGUUACCUAA,0.000191 ± 0.048
14,CUUAAGGAGUGGAUCAACUCGGUUACCUAA,0.00072 ± 0.016
15,CUUAUCCUCUCGAUGUACUGGGUUACCUAA,0.498 ± 0.03
16,CUUAAGGAGACCUACUACUGGGAUACCUUA,0.000487 ± 0.02
17,CUUAAGGAGAGUGAUCUACUGGGUUACCUAA,0.00223 ± 0.0035
18,CUUAAGGAGAGGAUCUACAGGGUUACCAAA,0.000634 ± 0.012
19,CUUAAGGAGACCUAGAUCUGGGUUACCGAA,0.000506 ± 0.013
20,CUUAAGGAGACGAUCUACUGGGUUAUCCUAA,0.00219 ± 0.0044
21,CUAUUCCUCUGGAUCUACUCGGGUUACCUAA,0.00268 ± 0.0051
22,CUUAAGGAGUCGAUCUACUGGCUUACCUAA,0.000288 ± 0.031
23,CUUAAGGAGUGGUUCAACUGGGUUACCUAA,0.00443 ± 0.0057
